# Measurements published in PubChem BioAssay AID624297 (National Center for Advancing Translational Sciences (NCATS), 2012).
# About 6,200 (1.8%) of roughly 340,000 compounds were called active. The shares of active, inactive and inconclusive entries below differ from those in the screen. Calls come from the whole dose curve; as a rule, active = well fitted activation curve with a large enough effect; inconclusive = small, poorly fitted or top-dose-only effect; inactive = no such curve, though single readings can be large or run the other way. Potencies of inconclusive entries are doubtful fits and often do not repeat.
# Test: A quantitative high throughput screen for small molecules that induce DNA re-replication in SW480 colon adenocarcinoma cells. For re-replication activation: % of control where 0% means no effect. Note: nearly all actives have a fitted effect of over 55% in size.
# Details: Hoechst DNA content imaging, 48 h; re-replication activation: at 46.1 µM (top of the series) unless noted
# Outline: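 DNA re-replication was detected as more nuclei of elevated Hoechst intensity after 48 hr exposure to compound (23 nL pinned per well of 250 cells).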
# Potency is the fitted concentration of half-maximal effect.
SMILES,re-replication activation,Potency
O=C(NC(=S)NCc1ccccc1)c1ccc(Br)cc1,inactive: -74%,
O=C(CN1CCN(c2ccccc2F)CC1)NCc1ccc(Cl)cc1,,"inconclusive: 23.1 µM [activator, single point]"
COc1cccc(CNC(=O)COC(=O)c2c(NC(C)=O)sc(C)c2C)c1,,active: 16.4 µM
O=C(Cc1ccc(F)cc1)Nc1cccc(-c2ccc3nncn3n2)c1,,"inconclusive: 13 µM [activator, single point]"
NC(=O)c1ccccc1,,"inconclusive: 0.206 µM [activator, full curve, poor fit]"
Cc1cc(/N=C/C=C2/N(C)c3ccccc3C2(C)C)n(CCC#N)n1,,"inconclusive: 29.1 µM [activator, single point]"
O=C1CCN(CC2CCCCC2)C=C1C(=O)c1ccccc1,,"inconclusive: 0.731 µM [activator, full curve, poor fit]"
COc1ccc(CC(=O)Nc2nc(-c3ccncc3)cs2)cc1,inactive: -26.9%,
N#Cc1c(N)nc2c(c1-c1ccc3c(c1)OCO3)CCc1ccccc1-2,,"inconclusive: 20.6 µM [activator, single point]"
CC(=O)N(C)c1ccc(N2CCOCC2)c2c1C(=O)c1ccccc1C2=O,,"inconclusive: 0.116 µM [activator, full curve, poor fit]"
COCCNC(=O)c1ccc2c3n(nc2c1)-c1ccccc1CO3,inactive: -30.4% [at 9.22 µM],
O=C(O)CCn1cc(/C=C/C(=O)c2ccc(Cl)cc2)c(-c2ccc(Br)cc2)n1,,"inconclusive: 28.2 µM [activator, single point]"
O=C(CCn1c(=O)sc2ccccc21)Nc1nccs1,inactive: -10%,
CCOC(=O)C1C(=O)CC(C)(O)C(C(=O)OCC)C1c1ccco1 (configuration not stated),,"inconclusive: 1.3 µM [activator, partial curve]"
CC(C)c1ccc(/C=C/C(=O)NC(=S)NN2CCOCC2)cc1,,"inconclusive: 1.84 µM [activator, full curve, poor fit]"
S=C(NCCc1ccccc1)NCc1cccc(Cl)c1,inactive: 0.94%,
CC1Cc2cc(S(=O)(=O)N3CCN(c4ccc(Cl)cc4)CC3)ccc2N1C(=O)C1CC1 (configuration not stated),,"inconclusive: 14.6 µM [activator, partial curve]"
Cc1ccc(C2(c3ccccc3)NC(=O)N(CC(=O)NC3(C#N)CCCC3)C2=O)cc1C (configuration not stated),,"inconclusive: 0.0731 µM [activator, full curve, poor fit]"
Cc1[nH]c2ccccc2c1SCc1nnc(SCc2ccc(Cl)cc2)n1C,,"inconclusive: 9.2 µM [activator, partial curve, poor fit]"
O=C(Cn1ccc2cc(S(=O)(=O)N3CCCC3)ccc21)NCCc1ccccc1,,"inconclusive: 0.092 µM [activator, full curve, poor fit]"
Cc1cc(C)nc(Nc2ccccc2F)n1,,active: 23.1 µM
CCc1ccc2nc(N(CCN(C)C)C(=O)/C=C/c3cccs3)sc2c1,,"inconclusive: 0.461 µM [activator, partial curve, poor fit]"
N=c1c(C(=O)NCc2ccco2)cc2c(=O)n3ccccc3nc2n1CC1CCCO1 (configuration not stated),,"inconclusive: 11.2 µM [activator, partial curve]"
CCOC(=O)C(CC)(CC)C(=O)/C=C/c1cccc(Br)c1,,"inconclusive: 29.1 µM [activator, single point]"

# Full records, looked up by structure.
# `COc1cccc(CNC(=O)COC(=O)c2c(NC(C)=O)sc(C)c2C)c1` in the list: Potency: active: 16.4 µM
# `O=C(CN1CCN(c2ccccc2F)CC1)NCc1ccc(Cl)cc1` in the list: Potency: inconclusive: 23.1 µM [activator, single point]
# `S=C(NCCc1ccccc1)NCc1cccc(Cl)c1` in the list: re-replication activation: inactive: 0.94%

# Continuation.

SMILES,re-replication activation,Potency
c1ccc(OCc2nn3c(-c4cccnc4)nnc3s2)cc1,inactive: -2.14%,
CN(C)S(=O)(=O)c1cccc(NC(=O)CSc2nc3ccccc3n2-c2ccccc2)c1,,"inconclusive: 29.1 µM [activator, partial curve, poor fit]"
CN(Cc1ccccc1C#N)S(=O)(=O)c1cccs1,inactive: 12.8%,
Cc1oc(-c2ccccc2)cc1C(=O)NC(Cc1c[nH]c2ccccc12)C(=O)O (configuration not stated),inactive: -6.63%,
Cc1ccc(CC2CC(=O)N(c3ccc(C)cc3)C2=O)cc1 (configuration not stated),inactive: -8.83%,
Cc1ccc(C(=O)Nc2ccnc(-c3cccnc3)n2)cc1,inactive: -3.05%,
Cc1ccc[n+](C(C(=S)NCc2ccco2)=C([O-])c2ccccc2Cl)c1,inactive: 1.93%,
COc1cc(CNCCSc2nnnn2C)cc(Br)c1OCc1ccccc1F,inactive: 22.2%,
COc1ccc(N2C(=O)CC(Cc3ccccc3)C2=O)cc1 (configuration not stated),inactive: 0.521%,
CC1CCN(Cc2nc3c(c(=O)n(C)c(=O)n3C)n2CCCc2ccccc2)CC1,inactive: -4.63%,
O=C(COC(=O)c1ccccc1Br)Nc1cccnc1Cl,inactive: -2.67%,
COc1ccc(/C=C/C(=O)c2ccc3c(c2)OCO3)c(OC)c1,,"inconclusive: 29.1 µM [activator, single point]"
COc1ccc(-c2sc(Nc3ccccc3)n[n+]2-c2ccc(F)cc2)cc1Br,inactive: 5.35%,
Cc1ccc(S(=O)(=O)Nc2cccc(-c3ccc4nncn4n3)c2)cc1,,active: 2.59 µM
O=S(=O)(c1ccc(Nc2ccc(-c3ccc4c(c3)OCCO4)nn2)cc1)N1CCCC1,inactive: -7.54%,
C(=N\Nc1nc(-c2ccccc2)cs1)/c1cccs1,,"inconclusive: 2.91 µM [activator, partial curve]"
Cc1cc(Nc2ccc(F)c(F)c2)nc(-c2ccccc2O)n1,inactive: -8.08%,
O=C(CSc1ccccc1)N1CCN(S(=O)(=O)c2ccccc2)CC1,inactive: -8.55%,
O=C(CSc1nnc(-c2cccnc2)o1)Nc1cccc(F)c1,,active: 3.26 µM
CCc1nc(N2CCCCC2C)c2oc3ccccc3c2n1 (configuration not stated),,"inconclusive: 20.6 µM [activator, single point]"
N#CC1=C(SCC(=O)c2ccccc2)NC2=C(C(=O)CCC2)C1c1ccco1 (configuration not stated),,active: 14.6 µM
C=CCc1ccc(OCCOc2cccc3ccc(C)nc23)c(OC)c1,,"inconclusive: 29.1 µM [activator, single point]"
CN1CCN(c2ccc(NC(=O)c3ccc(C#N)cc3F)cc2Cl)CC1,,"inconclusive: 0.0046 µM [activator, full curve, poor fit]"
Cc1cc(C)c2c3c(sc2n1)C(=O)N(Cc1ccccc1)CC(=O)N3,inactive: -12%,

SMILES,re-replication activation,Potency
Cc1ccc(CN(C)C(=O)c2ccccc2Oc2ccccc2)o1,,"inconclusive: 16.4 µM [activator, partial curve, poor fit]"
COCCCN1C(=O)c2ccc(C(=O)OCC(=O)NCCc3ccccc3)cc2C1=O,,"inconclusive: 3.66 µM [activator, single point]"
COc1ccc(C2=NN(CN3C(=O)C(=O)c4ccccc43)C(c3ccc(OC)cc3)C2)cc1 (configuration not stated),,active: 5.8 µM
COc1ccc(/C=C/C(=O)c2ccc3c4c(cccc24)CC3)cc1,,"inconclusive: 18.4 µM [activator, single point]"
COc1ccc(NC(=S)N(CCc2c(C)[nH]c3ccc(C)cc23)Cc2ccco2)cc1,,"inconclusive: 20.6 µM [activator, single point]"
COC(=O)C1=C(C)N(Cc2ccccc2)C(=NCC(C)C)N[C@H]1c1cccc(F)c1,,"inconclusive: 18.4 µM [activator, single point]"
COc1ccc2c(c1)[C@H]1[C@H](CO2)[C@H](c2ccccc2)[C@]2(C)C(=O)Nc3cc(C)ccc3C(=O)N12,,"inconclusive: 2.59 µM [activator, partial curve, poor fit]"
CCOC(=O)C1CCN(S(=O)(=O)Cc2ccccc2)CC1,,"inconclusive: 6.51 µM [activator, single point]"
Cc1ccc(NC(=S)N=Nc2c(O)[nH]c3ccccc23)cc1,,"inconclusive: 18.4 µM [activator, single point]"
O=C(NCC1CC1(Cl)Cl)Nc1ccc(Cl)c(Cl)c1 (configuration not stated),,"inconclusive: 29.1 µM [activator, single point]"
O=C(CN1CCC(C(=O)c2ccc(Cl)cc2)CC1)NC1CCCC1,,"inconclusive: 2.59 µM [activator, full curve, poor fit]"
COCC(=O)N(C)C[C@H]1N[C@@](Cc2ccccc2)(C(=O)OC)[C@H]2C(=O)N(Cc3ccccc3)C(=O)[C@@H]12,,"inconclusive: 0.326 µM [activator, full curve, poor fit]"
CC(C)=CCCC(C)CN1CCC(N2CCC(C(=O)N3CCOCC3)CC2)CC1 (configuration not stated),inactive: -6.92%,
COc1cccc(N2CN(C3CCCCC3)CNC2=S)c1,,"inconclusive: 14.6 µM [activator, single point]"
S=C(NCc1ccco1)N/N=C/c1ccc(Cl)cc1,,"inconclusive: 5.8 µM [activator, partial curve, poor fit]"
Cc1cc(Cl)ccc1OC(C)C(=O)N1CCCN(C(=O)C(C)Oc2ccc(Cl)cc2C)CC1 (configuration not stated),,"inconclusive: 29.1 µM [activator, single point]"
CCOc1ccc(CNc2ccc(N3CCCC3)cc2)cc1,,"inconclusive: 3.66 µM [activator, full curve]"
O=C(Cc1cccs1)NCCn1ccc2ccccc21,,"inconclusive: 25.9 µM [activator, partial curve, poor fit]"
COc1ccc(OC)c(S(=O)(=O)N2CCN(c3ccccn3)CC2)c1,,"inconclusive: 29.1 µM [activator, single point]"
C=CCCC(=O)Nc1nc(C)c(-c2csc(Nc3ccc(Cl)cc3)n2)s1,,"inconclusive: 18.4 µM [activator, partial curve, poor fit]"
Cc1ccc(CNC(=O)CSc2c3c(nc4ccc(Cl)cc24)CCCC3)o1,,"inconclusive: 29.1 µM [activator, single point]"
OCC1CCCN(C(=S)Nc2ccc(OC(F)F)cc2)C1 (configuration not stated),inactive: -10.6%,
Cc1cccc(Nc2nnc(SCC(=O)Nc3ccccc3[N+](=O)[O-])s2)c1,inactive: 1.52%,
C=CCn1c(SCC(=O)Nc2ccc(N3CCOCC3)cc2)nnc1-c1ccncc1,inactive: 2.03%,
